Data on three molecules can be found in paper PMC6465271.

For assay [1], the target named is T1, QUIRKY (QKY), full-length, FLAG-tagged (QKY-FLAG) (Arabidopsis) (UniProt B8XCH5).
T1 sequence: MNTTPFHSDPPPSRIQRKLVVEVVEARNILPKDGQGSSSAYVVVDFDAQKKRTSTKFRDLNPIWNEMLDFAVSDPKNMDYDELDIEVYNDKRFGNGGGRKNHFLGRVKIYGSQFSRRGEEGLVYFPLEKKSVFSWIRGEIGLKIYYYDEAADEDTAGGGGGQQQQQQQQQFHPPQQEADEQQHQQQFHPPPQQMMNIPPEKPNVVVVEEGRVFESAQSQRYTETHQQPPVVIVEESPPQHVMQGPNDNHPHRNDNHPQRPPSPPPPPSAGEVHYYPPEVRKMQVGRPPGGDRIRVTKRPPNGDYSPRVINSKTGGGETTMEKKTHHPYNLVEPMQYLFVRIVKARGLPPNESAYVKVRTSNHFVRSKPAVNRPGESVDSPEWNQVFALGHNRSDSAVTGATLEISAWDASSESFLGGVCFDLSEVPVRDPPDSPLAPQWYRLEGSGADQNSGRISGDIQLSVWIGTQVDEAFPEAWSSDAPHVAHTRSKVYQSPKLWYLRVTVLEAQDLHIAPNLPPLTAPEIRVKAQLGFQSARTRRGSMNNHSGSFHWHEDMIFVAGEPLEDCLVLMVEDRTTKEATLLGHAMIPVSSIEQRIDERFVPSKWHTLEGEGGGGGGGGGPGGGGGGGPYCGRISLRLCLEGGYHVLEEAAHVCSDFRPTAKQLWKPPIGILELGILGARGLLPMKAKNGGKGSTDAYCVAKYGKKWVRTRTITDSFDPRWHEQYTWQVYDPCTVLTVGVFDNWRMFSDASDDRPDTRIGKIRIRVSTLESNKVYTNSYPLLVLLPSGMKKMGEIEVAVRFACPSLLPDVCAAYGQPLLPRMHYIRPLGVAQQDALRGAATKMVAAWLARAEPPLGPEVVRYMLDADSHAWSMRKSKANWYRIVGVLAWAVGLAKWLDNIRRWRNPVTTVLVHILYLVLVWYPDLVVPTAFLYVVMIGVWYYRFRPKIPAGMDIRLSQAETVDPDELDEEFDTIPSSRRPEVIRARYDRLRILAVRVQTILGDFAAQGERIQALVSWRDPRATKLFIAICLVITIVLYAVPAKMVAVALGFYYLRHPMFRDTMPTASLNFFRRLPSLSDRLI
Kind of assay: co-IP; total protein extracts from Nicotiana benthamiana leaves transiently transformed with SCM-MYC and QKY-FLAG; buffer 50 mM Tris pH 7.5, 150 mM NaCl, 1% Triton X-100, protease inhibitor cocktail; 1 mg of total proteins; EZview Red ANTI-FLAG M2 Affinity Gel named in the methods.

Assay [2] concerns the target T2, QKY-EYFPc-V2 (EYFPc between the end of the first transmembrane domain and the beginning of the PRT domain of QKY) (Arabidopsis) (UniProt B8XCH5).
T2 sequence: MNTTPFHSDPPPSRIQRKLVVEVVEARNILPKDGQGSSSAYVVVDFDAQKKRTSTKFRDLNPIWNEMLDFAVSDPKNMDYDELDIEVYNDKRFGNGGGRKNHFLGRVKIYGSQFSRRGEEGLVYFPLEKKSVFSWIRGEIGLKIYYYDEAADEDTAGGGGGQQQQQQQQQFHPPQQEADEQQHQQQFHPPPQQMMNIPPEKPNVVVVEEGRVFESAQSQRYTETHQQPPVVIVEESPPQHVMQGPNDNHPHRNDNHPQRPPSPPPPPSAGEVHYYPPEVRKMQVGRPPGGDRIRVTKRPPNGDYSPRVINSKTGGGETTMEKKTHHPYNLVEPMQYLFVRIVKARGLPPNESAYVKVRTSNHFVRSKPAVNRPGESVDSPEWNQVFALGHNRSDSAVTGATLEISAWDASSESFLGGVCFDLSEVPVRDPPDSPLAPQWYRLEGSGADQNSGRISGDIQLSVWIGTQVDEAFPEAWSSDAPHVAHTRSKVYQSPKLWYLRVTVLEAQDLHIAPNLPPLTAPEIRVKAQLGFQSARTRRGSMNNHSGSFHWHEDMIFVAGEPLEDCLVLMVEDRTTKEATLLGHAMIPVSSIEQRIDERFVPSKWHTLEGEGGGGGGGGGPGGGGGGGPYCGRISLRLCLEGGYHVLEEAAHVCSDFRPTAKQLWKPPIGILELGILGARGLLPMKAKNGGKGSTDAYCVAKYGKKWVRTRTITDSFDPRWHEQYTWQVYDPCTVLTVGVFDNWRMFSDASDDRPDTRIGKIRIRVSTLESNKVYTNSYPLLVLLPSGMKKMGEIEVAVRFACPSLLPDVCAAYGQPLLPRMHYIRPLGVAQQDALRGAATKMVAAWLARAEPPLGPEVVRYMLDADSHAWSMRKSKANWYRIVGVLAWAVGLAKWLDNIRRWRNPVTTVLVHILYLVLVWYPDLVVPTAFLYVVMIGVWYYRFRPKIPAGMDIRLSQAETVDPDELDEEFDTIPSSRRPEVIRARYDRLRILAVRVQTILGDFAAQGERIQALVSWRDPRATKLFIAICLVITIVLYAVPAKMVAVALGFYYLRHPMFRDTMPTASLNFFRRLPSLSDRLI
Kind of assay: split reporter; BiFC with EYFPn on SCM and EYFPc on QKY, coexpressed under the 35S promoter in Nicotiana benthamiana leaf epidermal cells; confocal microscopy.

Assay [3] deals with T3, QKY-EYFPc-V3 (EYFPc at the end of the C-terminus of QKY) (Arabidopsis) (UniProt B8XCH5).
T3 sequence: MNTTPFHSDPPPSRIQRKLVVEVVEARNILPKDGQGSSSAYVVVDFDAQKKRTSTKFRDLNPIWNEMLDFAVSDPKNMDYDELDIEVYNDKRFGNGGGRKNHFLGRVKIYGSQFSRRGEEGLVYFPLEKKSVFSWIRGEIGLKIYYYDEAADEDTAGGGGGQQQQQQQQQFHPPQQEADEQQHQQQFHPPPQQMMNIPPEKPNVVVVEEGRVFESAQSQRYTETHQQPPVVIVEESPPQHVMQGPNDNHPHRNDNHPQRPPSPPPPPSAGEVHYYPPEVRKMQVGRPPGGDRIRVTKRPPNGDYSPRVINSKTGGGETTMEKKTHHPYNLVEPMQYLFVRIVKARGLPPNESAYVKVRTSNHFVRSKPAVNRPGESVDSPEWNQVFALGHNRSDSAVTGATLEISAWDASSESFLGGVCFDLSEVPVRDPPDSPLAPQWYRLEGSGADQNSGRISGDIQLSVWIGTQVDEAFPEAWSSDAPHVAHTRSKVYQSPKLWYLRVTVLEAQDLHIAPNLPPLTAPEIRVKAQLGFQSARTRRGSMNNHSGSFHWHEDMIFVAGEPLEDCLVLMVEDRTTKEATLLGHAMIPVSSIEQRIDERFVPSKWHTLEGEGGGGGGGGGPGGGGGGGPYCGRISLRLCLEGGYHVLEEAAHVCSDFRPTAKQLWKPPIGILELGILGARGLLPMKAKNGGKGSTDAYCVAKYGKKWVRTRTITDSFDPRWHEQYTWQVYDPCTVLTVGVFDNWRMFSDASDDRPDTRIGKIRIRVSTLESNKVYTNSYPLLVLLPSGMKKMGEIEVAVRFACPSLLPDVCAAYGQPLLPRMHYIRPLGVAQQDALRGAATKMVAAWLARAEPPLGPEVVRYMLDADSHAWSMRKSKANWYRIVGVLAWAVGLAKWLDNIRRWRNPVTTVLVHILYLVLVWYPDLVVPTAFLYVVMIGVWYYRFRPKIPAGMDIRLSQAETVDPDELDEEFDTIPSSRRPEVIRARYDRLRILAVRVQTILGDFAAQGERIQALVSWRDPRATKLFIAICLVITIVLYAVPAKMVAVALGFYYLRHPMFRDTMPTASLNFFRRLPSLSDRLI
The assay is described as above.

The target in assay [4] is T4, QKY-EYFPc-V1 (C-terminal half of EYFP at the end of the N-terminus of QKY) (Arabidopsis) (UniProt B8XCH5).
T4 sequence: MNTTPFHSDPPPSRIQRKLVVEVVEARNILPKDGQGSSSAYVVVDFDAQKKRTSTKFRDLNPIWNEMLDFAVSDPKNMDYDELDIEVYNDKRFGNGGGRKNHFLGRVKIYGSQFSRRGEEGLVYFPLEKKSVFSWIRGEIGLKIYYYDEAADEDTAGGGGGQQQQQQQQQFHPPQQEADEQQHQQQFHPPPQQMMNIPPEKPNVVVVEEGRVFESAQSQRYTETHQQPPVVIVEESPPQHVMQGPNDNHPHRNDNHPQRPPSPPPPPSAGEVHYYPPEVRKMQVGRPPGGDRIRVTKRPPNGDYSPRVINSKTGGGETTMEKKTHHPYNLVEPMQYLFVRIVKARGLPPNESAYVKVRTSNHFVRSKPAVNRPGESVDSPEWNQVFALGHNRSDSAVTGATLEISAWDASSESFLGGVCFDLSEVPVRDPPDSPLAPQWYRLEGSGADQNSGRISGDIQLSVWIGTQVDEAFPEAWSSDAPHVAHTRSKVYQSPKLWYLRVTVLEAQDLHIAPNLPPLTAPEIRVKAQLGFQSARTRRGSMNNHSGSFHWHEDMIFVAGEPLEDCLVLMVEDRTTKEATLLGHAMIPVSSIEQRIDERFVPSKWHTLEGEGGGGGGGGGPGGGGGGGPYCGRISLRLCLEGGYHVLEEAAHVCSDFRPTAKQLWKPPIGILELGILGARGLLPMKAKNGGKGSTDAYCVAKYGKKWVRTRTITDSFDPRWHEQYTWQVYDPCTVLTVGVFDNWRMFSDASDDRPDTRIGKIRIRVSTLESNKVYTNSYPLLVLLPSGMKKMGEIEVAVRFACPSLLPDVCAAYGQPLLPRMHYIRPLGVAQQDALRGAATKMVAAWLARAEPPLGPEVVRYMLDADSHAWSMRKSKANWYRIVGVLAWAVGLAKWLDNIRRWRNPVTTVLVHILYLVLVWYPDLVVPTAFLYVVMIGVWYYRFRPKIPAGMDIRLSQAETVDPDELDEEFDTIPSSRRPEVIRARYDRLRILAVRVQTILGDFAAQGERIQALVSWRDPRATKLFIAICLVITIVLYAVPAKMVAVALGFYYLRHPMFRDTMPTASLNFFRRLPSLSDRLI
The assay is described as above.

These are yes or no findings as the source states them, for the method shown. Binding seen in cells or lysates may run through a third protein. Some entries that bind do so weakly or less than the wild type. Sequences can lack the tags named with a protein.

B1: SCRAMBLED (SCM), full-length, MYC-tagged (SCM-MYC) (receptor, UniProt Q8RWZ1 25-768)
chain: VTNLRDVSAINNLYITLGAPSLHHWLAFGGDPCGEKWQGVVCDSSNITEIRIPGMKVGGGLSDTLADFSSIQVMDFSSNHISGTIPQALPSSIRNLSLSSNRFTGNIPFTLSFLSDLSELSLGSNLLSGEIPDYFQQLSKLTKLDLSSNILEGHLPSSMGDLASLKILYLQDNKLTGTLDVIEDLFLTDLNVENNLFSGPIPPNLLKIPNFKKDGTPFNTSIITPPPPPVVDPPPATHRAPPVPRIPPVSGVPPAPFAPFAPLQPQQHPPPSPPLVWSPPSSDNGGGDPWNSVSGQPTLQISPPSGSGSGKFWSTQRIILVVSSVAIIVLVSGLCVTLWRCCRSKIYNRYYSGARKDLQRPYFNKPPSQPTPTMGKVSREPMVKPFDGYGAGDRKYGYPMPQRAEESRRAMPPTSYYNKDVNTPQKPLQQPPRQFQSNDTASKRAAHFPPGLNSSSSATVFTIASLQQYTNNFSEENIIGEGSIGNVYRAELRHGKFLAVKKLSNTINRTQSDGEFLNLVSNVLKLKRGHILELLGYCNEFGQRLLVYEYCPNGSLQDALHLDRKLHKKLTWNVRINIALGASKALQFLHEVCQPPVVHQNFKSSKVLLDGKLSVRVADSGLAYMLPPRPTSQMAGYAAPEVEYGSYTCQSDVFSLGVVMLELLTGRRPFDRTRPRGHQTLAQWAIPRLHDIDALTRMVDPSLHGAYPMKSLSRFADIISRSLQMEPGFRPPISEIVQDLQHMI
Take B1: in assay [1], the binding entry is on record as “binds”.

B2: SCM-EYFPn-V2 (N-terminal half of EYFP fused to the C-terminus of SCM) (receptor, UniProt Q8RWZ1 25-768)
chain: VTNLRDVSAINNLYITLGAPSLHHWLAFGGDPCGEKWQGVVCDSSNITEIRIPGMKVGGGLSDTLADFSSIQVMDFSSNHISGTIPQALPSSIRNLSLSSNRFTGNIPFTLSFLSDLSELSLGSNLLSGEIPDYFQQLSKLTKLDLSSNILEGHLPSSMGDLASLKILYLQDNKLTGTLDVIEDLFLTDLNVENNLFSGPIPPNLLKIPNFKKDGTPFNTSIITPPPPPVVDPPPATHRAPPVPRIPPVSGVPPAPFAPFAPLQPQQHPPPSPPLVWSPPSSDNGGGDPWNSVSGQPTLQISPPSGSGSGKFWSTQRIILVVSSVAIIVLVSGLCVTLWRCCRSKIYNRYYSGARKDLQRPYFNKPPSQPTPTMGKVSREPMVKPFDGYGAGDRKYGYPMPQRAEESRRAMPPTSYYNKDVNTPQKPLQQPPRQFQSNDTASKRAAHFPPGLNSSSSATVFTIASLQQYTNNFSEENIIGEGSIGNVYRAELRHGKFLAVKKLSNTINRTQSDGEFLNLVSNVLKLKRGHILELLGYCNEFGQRLLVYEYCPNGSLQDALHLDRKLHKKLTWNVRINIALGASKALQFLHEVCQPPVVHQNFKSSKVLLDGKLSVRVADSGLAYMLPPRPTSQMAGYAAPEVEYGSYTCQSDVFSLGVVMLELLTGRRPFDRTRPRGHQTLAQWAIPRLHDIDALTRMVDPSLHGAYPMKSLSRFADIISRSLQMEPGFRPPISEIVQDLQHMI
As to B2, the binding entry in assay [2] is “binds”.

B3: SCM-EYFPn-V1 (EYFPn fused to the N-terminus of SCM) (receptor, UniProt Q8RWZ1 25-768)
chain: VTNLRDVSAINNLYITLGAPSLHHWLAFGGDPCGEKWQGVVCDSSNITEIRIPGMKVGGGLSDTLADFSSIQVMDFSSNHISGTIPQALPSSIRNLSLSSNRFTGNIPFTLSFLSDLSELSLGSNLLSGEIPDYFQQLSKLTKLDLSSNILEGHLPSSMGDLASLKILYLQDNKLTGTLDVIEDLFLTDLNVENNLFSGPIPPNLLKIPNFKKDGTPFNTSIITPPPPPVVDPPPATHRAPPVPRIPPVSGVPPAPFAPFAPLQPQQHPPPSPPLVWSPPSSDNGGGDPWNSVSGQPTLQISPPSGSGSGKFWSTQRIILVVSSVAIIVLVSGLCVTLWRCCRSKIYNRYYSGARKDLQRPYFNKPPSQPTPTMGKVSREPMVKPFDGYGAGDRKYGYPMPQRAEESRRAMPPTSYYNKDVNTPQKPLQQPPRQFQSNDTASKRAAHFPPGLNSSSSATVFTIASLQQYTNNFSEENIIGEGSIGNVYRAELRHGKFLAVKKLSNTINRTQSDGEFLNLVSNVLKLKRGHILELLGYCNEFGQRLLVYEYCPNGSLQDALHLDRKLHKKLTWNVRINIALGASKALQFLHEVCQPPVVHQNFKSSKVLLDGKLSVRVADSGLAYMLPPRPTSQMAGYAAPEVEYGSYTCQSDVFSLGVVMLELLTGRRPFDRTRPRGHQTLAQWAIPRLHDIDALTRMVDPSLHGAYPMKSLSRFADIISRSLQMEPGFRPPISEIVQDLQHMI
With B3, the binding result in assay [3] and in assay [4] was “binds” throughout.
